This note sets out measurements from article PMC7476095.

The chains behind the UniProt entries cited, without tags or fusion partners.
UniProt P13010: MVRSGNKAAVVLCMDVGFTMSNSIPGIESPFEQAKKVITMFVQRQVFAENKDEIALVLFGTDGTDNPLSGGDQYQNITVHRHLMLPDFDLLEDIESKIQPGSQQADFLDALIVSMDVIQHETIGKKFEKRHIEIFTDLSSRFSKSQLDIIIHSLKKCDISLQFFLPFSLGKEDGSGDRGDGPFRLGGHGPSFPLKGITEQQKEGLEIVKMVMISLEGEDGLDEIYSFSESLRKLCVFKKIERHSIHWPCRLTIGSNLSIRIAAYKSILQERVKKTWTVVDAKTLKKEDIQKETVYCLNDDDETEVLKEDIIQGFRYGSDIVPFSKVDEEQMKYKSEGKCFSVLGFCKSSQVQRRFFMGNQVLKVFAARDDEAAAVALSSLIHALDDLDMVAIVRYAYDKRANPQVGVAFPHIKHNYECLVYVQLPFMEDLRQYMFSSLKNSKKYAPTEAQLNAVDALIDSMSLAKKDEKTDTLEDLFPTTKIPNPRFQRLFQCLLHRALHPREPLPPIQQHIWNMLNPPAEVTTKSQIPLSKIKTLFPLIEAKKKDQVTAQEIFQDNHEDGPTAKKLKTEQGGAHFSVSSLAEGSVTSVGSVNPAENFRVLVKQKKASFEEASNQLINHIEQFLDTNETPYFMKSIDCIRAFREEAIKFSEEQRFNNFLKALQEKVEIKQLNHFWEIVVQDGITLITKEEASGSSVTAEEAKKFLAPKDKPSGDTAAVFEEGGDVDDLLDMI

These are yes or no findings as the source states them, for the method shown. Binding seen in cells or lysates may run through a third protein. Some results given as binding are weak or reduced against the parent protein; the word gives no strength. For part of these data: Tags and fused reporters may be left off the sequences shown.

Experiment [1] has as its target T1, FLAG-tagged MAD1-S214A mutant (UniProt Q9Y6D9).
T1 sequence: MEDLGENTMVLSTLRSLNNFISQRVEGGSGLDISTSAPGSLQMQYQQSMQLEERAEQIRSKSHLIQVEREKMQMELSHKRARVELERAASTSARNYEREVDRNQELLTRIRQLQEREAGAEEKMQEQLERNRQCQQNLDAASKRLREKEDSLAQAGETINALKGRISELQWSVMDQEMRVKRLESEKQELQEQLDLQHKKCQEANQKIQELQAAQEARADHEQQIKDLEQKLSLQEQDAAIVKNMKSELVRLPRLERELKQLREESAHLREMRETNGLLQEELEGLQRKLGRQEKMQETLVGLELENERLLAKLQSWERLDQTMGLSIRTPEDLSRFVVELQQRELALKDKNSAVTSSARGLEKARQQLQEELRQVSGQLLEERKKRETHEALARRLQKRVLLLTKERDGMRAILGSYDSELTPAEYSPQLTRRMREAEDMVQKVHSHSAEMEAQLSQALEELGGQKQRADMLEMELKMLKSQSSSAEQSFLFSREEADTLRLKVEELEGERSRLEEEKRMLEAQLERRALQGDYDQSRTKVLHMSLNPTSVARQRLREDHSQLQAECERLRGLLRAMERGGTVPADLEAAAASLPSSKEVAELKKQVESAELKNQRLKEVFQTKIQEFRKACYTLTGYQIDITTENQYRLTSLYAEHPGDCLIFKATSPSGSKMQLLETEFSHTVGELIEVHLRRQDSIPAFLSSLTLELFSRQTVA
The experiment in a line: co-IP; anti-FLAG-M2 agarose beads with whole cell lysates of HeLa or HCT116 cells transiently expressing FLAG-MAD1 (wild type or S214A), overnight at 4 °C, washed with TBS; cells mock-treated or IR (6 Gy), harvested 2 h after IR; blotted for KU80.

For experiment [2], the target named is T2, FLAG-tagged wild type MAD1 (mitotic arrest-deficient protein 1) (UniProt Q9Y6D9).
T2 sequence: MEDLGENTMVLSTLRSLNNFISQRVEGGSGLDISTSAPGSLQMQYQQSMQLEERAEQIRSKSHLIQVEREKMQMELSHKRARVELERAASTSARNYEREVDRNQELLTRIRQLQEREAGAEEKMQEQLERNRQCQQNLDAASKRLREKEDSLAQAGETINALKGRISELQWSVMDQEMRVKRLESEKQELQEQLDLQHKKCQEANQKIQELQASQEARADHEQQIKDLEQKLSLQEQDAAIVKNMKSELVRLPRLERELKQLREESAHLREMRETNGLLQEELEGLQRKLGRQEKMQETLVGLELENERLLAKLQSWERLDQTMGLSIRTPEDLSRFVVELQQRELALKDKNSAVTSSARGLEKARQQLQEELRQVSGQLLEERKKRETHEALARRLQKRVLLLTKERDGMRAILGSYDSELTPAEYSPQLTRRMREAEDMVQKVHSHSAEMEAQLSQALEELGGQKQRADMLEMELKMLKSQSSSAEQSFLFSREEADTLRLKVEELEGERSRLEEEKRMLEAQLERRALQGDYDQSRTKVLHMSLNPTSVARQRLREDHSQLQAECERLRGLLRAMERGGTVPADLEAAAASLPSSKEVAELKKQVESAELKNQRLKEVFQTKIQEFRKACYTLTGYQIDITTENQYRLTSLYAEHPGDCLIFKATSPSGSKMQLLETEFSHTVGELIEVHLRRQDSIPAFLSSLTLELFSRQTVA
The description is as above.

The target in experiment [3] is KU80 (human (endogenous in HeLa and HCT116)) (UniProt P13010). The experiment is described as follows: co-IP; anti-KU80 antibody precipitates from HeLa or HCT116 cells transiently expressing FLAG-MAD1 (wild type or S214A); cells mock-treated or IR (6 Gy), harvested 2 h after IR; immunoblot.
Experiment [4] has the same target. The experiment is described as follows: co-IP; anti-KU80 antibody precipitates from HCT116 cells, with or without IR; immunoblot for MAD1 and p-MAD1. (In western blotting, separated proteins are transferred to a membrane and probed.)

Turning to KU80 (from UniProt P13010 1-732), the binding result in experiment [1] and in experiment [2] was “binds” throughout.

B1: FLAG-tagged wild type MAD1 (mitotic arrest-deficient protein 1) (protein, UniProt Q9Y6D9 1-718)
chain: MEDLGENTMVLSTLRSLNNFISQRVEGGSGLDISTSAPGSLQMQYQQSMQLEERAEQIRSKSHLIQVEREKMQMELSHKRARVELERAASTSARNYEREVDRNQELLTRIRQLQEREAGAEEKMQEQLERNRQCQQNLDAASKRLREKEDSLAQAGETINALKGRISELQWSVMDQEMRVKRLESEKQELQEQLDLQHKKCQEANQKIQELQASQEARADHEQQIKDLEQKLSLQEQDAAIVKNMKSELVRLPRLERELKQLREESAHLREMRETNGLLQEELEGLQRKLGRQEKMQETLVGLELENERLLAKLQSWERLDQTMGLSIRTPEDLSRFVVELQQRELALKDKNSAVTSSARGLEKARQQLQEELRQVSGQLLEERKKRETHEALARRLQKRVLLLTKERDGMRAILGSYDSELTPAEYSPQLTRRMREAEDMVQKVHSHSAEMEAQLSQALEELGGQKQRADMLEMELKMLKSQSSSAEQSFLFSREEADTLRLKVEELEGERSRLEEEKRMLEAQLERRALQGDYDQSRTKVLHMSLNPTSVARQRLREDHSQLQAECERLRGLLRAMERGGTVPADLEAAAASLPSSKEVAELKKQVESAELKNQRLKEVFQTKIQEFRKACYTLTGYQIDITTENQYRLTSLYAEHPGDCLIFKATSPSGSKMQLLETEFSHTVGELIEVHLRRQDSIPAFLSSLTLELFSRQTVA
As for B1, the binding entry in experiment [3] is given as “binds”.

B2: p-MAD1 (MAD1 phosphorylated on serine 214), endogenous (protein, UniProt Q9Y6D9 1-718)
chain: MEDLGENTMVLSTLRSLNNFISQRVEGGSGLDISTSAPGSLQMQYQQSMQLEERAEQIRSKSHLIQVEREKMQMELSHKRARVELERAASTSARNYEREVDRNQELLTRIRQLQEREAGAEEKMQEQLERNRQCQQNLDAASKRLREKEDSLAQAGETINALKGRISELQWSVMDQEMRVKRLESEKQELQEQLDLQHKKCQEANQKIQELQASQEARADHEQQIKDLEQKLSLQEQDAAIVKNMKSELVRLPRLERELKQLREESAHLREMRETNGLLQEELEGLQRKLGRQEKMQETLVGLELENERLLAKLQSWERLDQTMGLSIRTPEDLSRFVVELQQRELALKDKNSAVTSSARGLEKARQQLQEELRQVSGQLLEERKKRETHEALARRLQKRVLLLTKERDGMRAILGSYDSELTPAEYSPQLTRRMREAEDMVQKVHSHSAEMEAQLSQALEELGGQKQRADMLEMELKMLKSQSSSAEQSFLFSREEADTLRLKVEELEGERSRLEEEKRMLEAQLERRALQGDYDQSRTKVLHMSLNPTSVARQRLREDHSQLQAECERLRGLLRAMERGGTVPADLEAAAASLPSSKEVAELKKQVESAELKNQRLKEVFQTKIQEFRKACYTLTGYQIDITTENQYRLTSLYAEHPGDCLIFKATSPSGSKMQLLETEFSHTVGELIEVHLRRQDSIPAFLSSLTLELFSRQTVA
modifications: phosphoserine at 214
Regarding B2, in experiment [4], the binding entry was “binds”.

B3: FLAG-tagged MAD1-S214A mutant (protein, UniProt Q9Y6D9 1-718)
chain: MEDLGENTMVLSTLRSLNNFISQRVEGGSGLDISTSAPGSLQMQYQQSMQLEERAEQIRSKSHLIQVEREKMQMELSHKRARVELERAASTSARNYEREVDRNQELLTRIRQLQEREAGAEEKMQEQLERNRQCQQNLDAASKRLREKEDSLAQAGETINALKGRISELQWSVMDQEMRVKRLESEKQELQEQLDLQHKKCQEANQKIQELQAAQEARADHEQQIKDLEQKLSLQEQDAAIVKNMKSELVRLPRLERELKQLREESAHLREMRETNGLLQEELEGLQRKLGRQEKMQETLVGLELENERLLAKLQSWERLDQTMGLSIRTPEDLSRFVVELQQRELALKDKNSAVTSSARGLEKARQQLQEELRQVSGQLLEERKKRETHEALARRLQKRVLLLTKERDGMRAILGSYDSELTPAEYSPQLTRRMREAEDMVQKVHSHSAEMEAQLSQALEELGGQKQRADMLEMELKMLKSQSSSAEQSFLFSREEADTLRLKVEELEGERSRLEEEKRMLEAQLERRALQGDYDQSRTKVLHMSLNPTSVARQRLREDHSQLQAECERLRGLLRAMERGGTVPADLEAAAASLPSSKEVAELKKQVESAELKNQRLKEVFQTKIQEFRKACYTLTGYQIDITTENQYRLTSLYAEHPGDCLIFKATSPSGSKMQLLETEFSHTVGELIEVHLRRQDSIPAFLSSLTLELFSRQTVA
As for B3, the binding entry in experiment [3] was “binds”.

B4: MAD1 (mitotic arrest-deficient protein 1), endogenous (protein, UniProt Q9Y6D9 1-718)
chain: MEDLGENTMVLSTLRSLNNFISQRVEGGSGLDISTSAPGSLQMQYQQSMQLEERAEQIRSKSHLIQVEREKMQMELSHKRARVELERAASTSARNYEREVDRNQELLTRIRQLQEREAGAEEKMQEQLERNRQCQQNLDAASKRLREKEDSLAQAGETINALKGRISELQWSVMDQEMRVKRLESEKQELQEQLDLQHKKCQEANQKIQELQASQEARADHEQQIKDLEQKLSLQEQDAAIVKNMKSELVRLPRLERELKQLREESAHLREMRETNGLLQEELEGLQRKLGRQEKMQETLVGLELENERLLAKLQSWERLDQTMGLSIRTPEDLSRFVVELQQRELALKDKNSAVTSSARGLEKARQQLQEELRQVSGQLLEERKKRETHEALARRLQKRVLLLTKERDGMRAILGSYDSELTPAEYSPQLTRRMREAEDMVQKVHSHSAEMEAQLSQALEELGGQKQRADMLEMELKMLKSQSSSAEQSFLFSREEADTLRLKVEELEGERSRLEEEKRMLEAQLERRALQGDYDQSRTKVLHMSLNPTSVARQRLREDHSQLQAECERLRGLLRAMERGGTVPADLEAAAASLPSSKEVAELKKQVESAELKNQRLKEVFQTKIQEFRKACYTLTGYQIDITTENQYRLTSLYAEHPGDCLIFKATSPSGSKMQLLETEFSHTVGELIEVHLRRQDSIPAFLSSLTLELFSRQTVA
In the case of B4, the binding result in experiment [4] was “binds”.
